{"source": "PubChem BioAssay AID602196 (INSERM, 2012)", "assay": "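Modifiers of cisplatin sensitivity in A549 cells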", "system": "human A549 lung cancer cells", "reagents": "siRNA pair against human genes", "duration": "48 h transfection before cisplatin; time from cisplatin to read-out not stated", "challenge": "cisplatin at a dose killing half of control-siRNA cells; exact dose and duration not given", "measurement": "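Cisplatin cell death as a shift from the 50% death seen with control siRNA; siRNAs toxic or growth-blocking alone scored 0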", "direction": "two-siRNA summed score (-2 to +2): higher = both siRNAs protect from cisplatin killing; -2 means both sensitise", "rule for the call": "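siRNAs harmful alone (LDH or WST-1) get 0; others get +1 for less and -1 for more cisplatin killing; genes are active when the two siRNAs give the same sign, summing to ±2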", "meaning of the calls": "active = both siRNAs shift cisplatin killing the same way; inactive = no consistent shift, or siRNA harmful alone", "note": "Shown is a random part of about 23,000 reagents. 455 of all reagents (2%) count as active. 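Active includes both protection and sensitisation; some change values fall well beyond the stated -50 to +50 range.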 Further read-outs or replicates are left out here. Not stated in the record: the amount of reagent."}
{"Target gene": "TCEAL2", "PubChem SID": "SID131511956", "two-siRNA summed score (-2 to +2)": 0, "Call": "inactive"}
{"Target gene": "NOB1", "PubChem SID": "SID131508841", "two-siRNA summed score (-2 to +2)": 0, "Call": "inactive"}
{"Target gene": "PCF11", "PubChem SID": "SID131516290", "two-siRNA summed score (-2 to +2)": 0, "Call": "inactive"}
{"Target gene": "LOC440864 (retired record)", "PubChem SID": "SID131521538", "two-siRNA summed score (-2 to +2)": 1, "Call": "inactive"}
{"Target gene": "ANO8", "PubChem SID": "SID131504309", "two-siRNA summed score (-2 to +2)": 0, "Call": "inactive"}
{"Target gene": "TRPC1", "PubChem SID": "SID131518433", "two-siRNA summed score (-2 to +2)": 0, "Call": "inactive"}
{"Target gene": "LOC92312", "PubChem SID": "SID131522753", "two-siRNA summed score (-2 to +2)": 1, "Call": "inactive"}
{"Target gene": "LOC401178", "PubChem SID": "SID131513600", "two-siRNA summed score (-2 to +2)": 0, "Call": "inactive"}
{"Target gene": "C11orf42", "PubChem SID": "SID131503903", "two-siRNA summed score (-2 to +2)": 0, "Call": "inactive"}
{"Target gene": "YIF1B", "PubChem SID": "SID131520188", "two-siRNA summed score (-2 to +2)": 1, "Call": "inactive"}
{"Target gene": "SLC6A18", "PubChem SID": "SID131519289", "two-siRNA summed score (-2 to +2)": 1, "Call": "inactive"}
{"Target gene": "SLC38A11", "PubChem SID": "SID131522416", "two-siRNA summed score (-2 to +2)": 1, "Call": "inactive"}
{"Target gene": "LOC442699", "PubChem SID": "SID131520910", "two-siRNA summed score (-2 to +2)": 1, "Call": "inactive"}
{"Target gene": "LY6E", "PubChem SID": "SID131518245", "two-siRNA summed score (-2 to +2)": 0, "Call": "inactive"}
{"Target gene": "NEK3", "PubChem SID": "SID131520239", "two-siRNA summed score (-2 to +2)": 1, "Call": "inactive"}
{"Target gene": "ATF1", "PubChem SID": "SID131501096", "two-siRNA summed score (-2 to +2)": -1, "Call": "inactive"}
{"Target gene": "DYNC1LI1", "PubChem SID": "SID131509515", "two-siRNA summed score (-2 to +2)": 0, "Call": "inactive"}
{"Target gene": "EDN3", "PubChem SID": "SID131510705", "two-siRNA summed score (-2 to +2)": 0, "Call": "inactive"}
{"Target gene": "CRYBG2", "PubChem SID": "SID131517450", "two-siRNA summed score (-2 to +2)": 0, "Call": "inactive"}
{"Target gene": "SEC24C", "PubChem SID": "SID131502421", "two-siRNA summed score (-2 to +2)": -1, "Call": "inactive"}
{"Target gene": "F8", "PubChem SID": "SID131514329", "two-siRNA summed score (-2 to +2)": 0, "Call": "inactive"}
{"Target gene": "RP2", "PubChem SID": "SID131505416", "two-siRNA summed score (-2 to +2)": 0, "Call": "inactive"}
{"Target gene": "CR1", "PubChem SID": "SID131508580", "two-siRNA summed score (-2 to +2)": 0, "Call": "inactive"}
{"Target gene": "LOC441221", "PubChem SID": "SID131508184", "two-siRNA summed score (-2 to +2)": 0, "Call": "inactive"}
{"Target gene": "GTF3C6", "PubChem SID": "SID131503794", "two-siRNA summed score (-2 to +2)": 0, "Call": "inactive"}
{"Target gene": "LOC400964", "PubChem SID": "SID131516564", "two-siRNA summed score (-2 to +2)": 0, "Call": "inactive"}
{"Target gene": "EIF4A1", "PubChem SID": "SID131515527", "two-siRNA summed score (-2 to +2)": 0, "Call": "inactive"}
{"Target gene": "LOC389900", "PubChem SID": "SID131502412", "two-siRNA summed score (-2 to +2)": -1, "Call": "inactive"}
{"Target gene": "LOC440928", "PubChem SID": "SID131518267", "two-siRNA summed score (-2 to +2)": 0, "Call": "inactive"}
{"Target gene": "IVNS1ABP", "PubChem SID": "SID131513817", "two-siRNA summed score (-2 to +2)": 0, "Call": "inactive"}
{"Target gene": "LOC441337", "PubChem SID": "SID131506978", "two-siRNA summed score (-2 to +2)": 0, "Call": "inactive"}
